Measured values: PubChem BioAssay AID1508600 (Functional Genomics Laboratory (NCATS/FGL), 2020)
The campaign covered roughly 53,000 sequences. About 3,700 (7%) were called active.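 How the source made its calls: active means gene knockdowns whose robust z-score for IL-1 alpha signal is at least 2 or at most -2, so actives lie on both sides; inactive means the rest.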 The list shows a part of the results.

experiment: Components of the Cytosolic LPS Sensing Pathway: Gene Identification via Genome-wide siRNA Screen; details: RAW264.7 macrophages, IL-1a HTRF, actives lie on both sides, screened at 100 nM (by protocol), cells primed 5 h with Pam3CSK4 first;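 further: robust z of the log signal after scaling to non-targeting control siRNA wells of the plate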
Method in brief: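 Mouse macrophage line RAW264.7 is transfected with siRNA (100 nM final), grown 48h, primed with TLR ligand Pam3CSK4 5 h and given intracellular LipidA 24 h. IL-1a in supernatant is read by HTRF and viability by luminescence.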

Row | Sequence | z-score
1 | GGACCUUUUGUCUAUAAUGTT against Arl4c | inactive: 0.759
2 | GGUUCAAAUACAUUGCCAUTT against Rabif | inactive: -0.778
3 | GGGAGGAUGAACAUCAAAGTT against Afg1l | inactive: 0.786
4 | GGUUGUCUGUCUUUUCCGGTT against Mta2 | inactive: 0.868
5 | GGGCAACAUUGAAACAAAUTT against Idh3g | inactive: 0.939
6 | GGAAUUGAGAAAUCUAAUGTT against Rev1 | inactive: 0.323
7 | CGCAUUAUGCUUGAAAUGUTT against Nefh | inactive: -0.442
8 | GCUAAGUCCGACUAAGCAUTT against Hmgn1 | inactive: -0.988
9 | GGAGGAGAGAACAAAAUGUTT against Itgb1bp2 | inactive: 0.839
10 | GGAAGCUUUUUUCUGAGCUTT against Fam3a | inactive: -1.27
11 | GCCAAAGUGCAGAAUUGGUTT against Rhox1 | inactive: -1.64
12 | GCAGAUCAAAUUUAGCUGATT against Wwc2 | inactive: 0.266
13 | GGCAUAUGCACUUUAUUUCTT against Cep97 | inactive: -0.339
14 | GGCCUUCCAUACUACAACUTT against Zfp595 | active: 2.2
15 | CCCUAAUAUCACAUGGUGGTT against Cd79a | inactive: 0.598
16 | CGAAGGAGCAACGGUAAAATT against Fkbp5 | inactive: 0.953
17 | GGAUGUCCACAACAAGUGATT against Glra1 | inactive: -0.0877
18 | GCAGACAGAGUUUUAACGUTT against Fancl | inactive: -0.381
19 | GGCUAAAACUGCACAUAAATT against Pyroxd1 | active: -3.43
20 | GGAUACAAUGUCCGAGUGCTT against Tie1 | inactive: -0.485
21 | CGUAGGACACGUGAAUUGUTT against F7 | inactive: -0.92
22 | CGGCACUGUCAUAAGUGUGTT against Utp4 | active: 2.39
23 | GCAUGGCUAUUUAACAUUCTT against Rpl7l1 | inactive: 0.171

Row | Sequence | z-score
24 | GGACACAGAUGGUUUGUAUTT against Rcc1 | inactive: -1.57
25 | GGCUUCUCAUUGUGAAUAUTT against M1ap | inactive: -0.869
26 | GGAUUUGAGAGAUUCAGUUTT against Siglecg | inactive: 0.0503
27 | CCGCUGUUUUCAACUGUGCTT against Asb10 | inactive: -0.773
28 | GGAAAAGAAAGAUGUGACUTT against Trappc9 | active: -2.55
29 | GGGACAGCAACAUUGUCAATT against Inhbc | inactive: 0.907
30 | GGCAUCUAUGACAAGUUUGTT against Dnajb13 | inactive: 0.567
31 | GGACAUUUAAAAUCACUUGTT against Fam110c | inactive: -0.895
32 | GGAAAAGAUGGCUGUUGUCTT against Banf1 | inactive: -1.18
33 | GCAUGUUUACGUUCCUGACTT against Slc2a12 | inactive: -0.0386
34 | AAAACCACUCUGUUAUCACTT against Olfr774 | inactive: 1.21
35 | CCAUGGAAUUCAAUUCCUUTT against Vmn2r66 | inactive: 0.0798
36 | GGGCUCCGAUGAAGAGAAUTT against Ctrb1 | inactive: 0.427
37 | CCUGAUAUUCCAUCCUGAATT against Acad10 | inactive: -0.626
38 | GCACGAAUCCUUUGUAUCATT against Spta1 | inactive: -0.202
39 | CCAAAUAGCCAAACUCUUGTT against Fgf17 | inactive: 0.293
40 | GCAAUGGAUCUCGUUUUUCTT against Slc6a6 | inactive: 0.273
41 | GGAGUUUUCUUGUGUUUUUTT against Fgfbp1 | inactive: -0.17
42 | CAAUGUUUGGGAACCUUCUTT against Olfr834 | inactive: -1.19
43 | GGAUUCAGGAGAAAAGACCTT against Olfr569 | inactive: 1.66
44 | CGGAAACAACUGCUCUAUGTT against Scarf1 | inactive: 0.0727
45 | GGCUUCUUCAGAUCCUAAATT against Olfr554 | inactive: -0.615
46 | GGGAAGAGAAUGAGAUAAATT against F7 | active: 3.22

Row | Sequence | z-score
47 | GGAACAAGUAAAGACUGUUTT against 4932411K12 | inactive: -1.73
48 | GGACUUUGUCACCAUGACGTT against Pef1 | inactive: 0.105
49 | GGAAUUUUUGGACAAAGUATT against Grid2 | inactive: 1.19
50 | GGAGCAGACAUCAGAAAGCTT against Nlrp5 | inactive: 0.353
51 | GCAGGUUGCUAUGCAUAUGTT against 9930038B18Rik | inactive: 0.722
52 | GGUCAUAGUCACUGAUUCCTT against Magea5 | inactive: -0.551
53 | GGAAGCUGUUCACCACUGCTT against Pex6 | inactive: 0.648
54 | CCUAUGAGGUCAGAUUCUUTT against Ssr4 | inactive: -0.0621
55 | GCCAAGUGUUGGACUUUCATT against Fads3 | inactive: -0.563
56 | GGAGAAAGAGCCUUUAAGGTT against Clec14a | inactive: -0.437
57 | GCAUGAAAACACGUUUGGGTT against Hdac11 | inactive: 1.36
58 | GGGAACAAAUUCAUUGUAUTT against Eny2 | active: 2.26
59 | GGGACAAAAGCUCCUCUAGTT against Kap | inactive: -1.85
60 | GGUUUCGUUGUUCUUGUUGTT against Ttc33 | inactive: 0.55
61 | CCACAAUUUGACCAACUUATT against Slc9a1 | inactive: 1.3
62 | CGACUGGGACAUUAAAACCTT against Tmem160 | inactive: -1.55
63 | GGAAAGCUCAAUUGGUUCGTT against Nup85 | active: -2.27
64 | AAUUGUAUGGUACUUCAUGTT against Olfr620 | inactive: 0.343
65 | GGAAAACUAACCAAAAUAGTT against F3 | inactive: 1.45
66 | CCGGUUGUUUUGAGUGUUGTT against Rad9b | inactive: 1.09
67 | GGGCUCAUCUCAGAGGAGATT against Astl | inactive: 1.44
68 | GGACUGGUGGACAUAUGAATT against Os9 | active: 2.81
69 | GGUUGGAGAAGUUGUUACUTT against Arl1 | inactive: -0.0722

Another view of part of the listing above:
GGAGCAGACAUCAGAAAGCTT against Nlrp5
  z-score: inactive: 0.353
CCUAUGAGGUCAGAUUCUUTT against Ssr4
  z-score: inactive: -0.0621
GCAUGAAAACACGUUUGGGTT against Hdac11
  z-score: inactive: 1.36
GGAAAGCUCAAUUGGUUCGTT against Nup85
  z-score: active: -2.27
